Sequences and labels used below:
B1: PRE transcription factor AT5G39860 (protein, UniProt Q9FLE9 1-92)
chain: MSNRRSRQSSSAPRISDNQMIDLVSKLRQILPEIGQRRRSDKASASKVLQETCNYIRNLNREVDNLSERLSQLLESVDEDSPEAAVIRSLLM
B2: PRE transcription factor AT5G15160 (protein, UniProt Q9LXG5 1-94)
chain: MSSSRRSRQASSSSRISDDQITDLISKLRQSIPEIRQNRRSNTVSASKVLQETCNYIRNLNKEADDLSDRLTQLLESIDPNSPQAAVIRSLING
B3: PRE transcription factor AT1G26945 (protein, UniProt Q8GW32 1-94)
chain: MSSRRSSRSRQSGSSRISDDQISDLVSKLQHLIPELRRRRSDKVSASKVLQETCNYIRNLHREVDDLSDRLSELLASTDDNSAEAAIIRSLLNY

No constants are given. Whether binding was seen depends on the method and setting. In cells and extracts the contact can be indirect. These calls come from enrichment with a bait or labelling near it, and not all partners need be listed.

This assay has as its target HLH4-3×FLAG-3×MYC (35S-HLH4-3 × FLAG-3 × MYC transgenic plants) (A. thaliana). The experiment in a line: affinity purification with mass spectrometry; total protein of HLH4 overexpression plants (35S-HLH4-3×FLAG-3×MYC); FLAG M2 magnetic beads, 3 h at 4 °C; 50 mM Tris-HCl pH 7.5, 0.15 M NaCl, 5 mM MgCl2, 0.2% NP-40, 10% glycerol; eluate separated by SDS-PAGE and analysed by mass spectrometry.
B1: the binding result was “binds”.
For the molecule B2, the binding entry was “binds”.
With B3 the entry was “binds”.

The values above are taken from PMC8997993.
